Counter-ions that a name gives are not always drawn. The list shows a part of the results. Repeats in this data set agree poorly, so a single value says little.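 Human fetal ventral-midbrain neural progenitor line ReNCell VM, differentiated without mitogens. Images stained for doublecortin (early neurons) or tyrosine hydroxylase (dopaminergic neurons) were scored by blinded raters against untreated wells (0 = no change). Repeats and both raters were averaged, and compounds averaging 2 or higher were picked as hits for retesting.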
Legend:
[1] = system: ReNCell VM; assay: neuronal differentiation score (DCX+ cell fraction vs untreated, manual image score) (score (-3 to 3)); higher = more neuronal differentiation; settings: 2 uM, 2 weeks
[2] = system: ReNCell VM; assay: dopaminergic neuron differentiation score (TH+ cell fraction vs untreated, manual image score) (score (0 to 3)); higher = more TH+ dopaminergic neuron differentiation; settings: 2 uM, 4 weeks, BDNF 10 ng/ml + GDNF 10 ng/ml

For `Cc1cccc(C)c1NC1=NCCCS1` [Xylazine], the neuronal differentiation score ([1]; library: Prestwick) was inactive: 0 and the “dopaminergic neuron differentiation score” value ([2]; library: Prestwick) was inactive: 0.

`N#C/C(=C\c1cccc(O)c1)C(=O)O` [alpha-CYANO-3-HYDROXYCINNAMIC ACID] was tested, and the neuronal differentiation score ([1]; library: Spectrum) was inactive: 0 and the “dopaminergic neuron differentiation score” value ([2]; library: Spectrum) was inactive: 0.

`N=C1NC(=O)N2CC12` (stereo not drawn) was tested, and the neuronal differentiation score ([1]; library: Spectrum) was inactive: 0 and the “dopaminergic neuron differentiation score” value ([2]; library: Spectrum) was inactive: 0.

In the case of `COC[C@H]1OC(=O)c2coc3c2[C@@]1(C)C1=C(C3=O)[C@@H]2CCC(=O)[C@@]2(C)C[C@H]1OC(C)=O` [Wortmannin from Penicillium funiculosum], the neuronal differentiation score ([1]; library: LOPAC) is reported as inactive: 0 and the “dopaminergic neuron differentiation score” value ([2]; library: LOPAC) is reported as inactive: 0.

For `C[C@@H](N)Cc1cnc[nH]1` [Histamine, R(-)-alpha-methyl-, dihydrochloride], the neuronal differentiation score ([1]; library: LOPAC) was inactive: 0 and the “dopaminergic neuron differentiation score” value ([2]; library: LOPAC) was inactive: 0.

For `C/C=C(/C)C(=O)O[C@H]1C(C)=C2[C@H]([C@@H]1OC(=O)CCCCCCC)[C@@](C)(OC(C)=O)C[C@H](OC(=O)CCC)[C@@]1(O)[C@H]2OC(=O)[C@@]1(C)O` [Thapsigargin], the neuronal differentiation score ([1]; library: LOPAC) was inactive: 0 and the “dopaminergic neuron differentiation score” value ([2]; library: LOPAC) was inactive: 0.

`CCCN1CCC[C@H](c2cccc(O)c2)C1` [R(+)-3PPP hydrochloride] was tested, and the neuronal differentiation score ([1]; library: LOPAC) was inactive: 0 and the “dopaminergic neuron differentiation score” value ([2]; library: LOPAC) was inactive: 0.

In the case of `C=C1CC[C@@]2(O)[C@H]3Cc4ccc(O)c5c4[C@@]2(CCN3CC2CC2)[C@H]1O5` [Nalmefene hydrochloride], the neuronal differentiation score ([1]; library: Prestwick) is reported as inactive: 0 and the “dopaminergic neuron differentiation score” value ([2]; library: Prestwick) is reported as inactive: 0.

`O=[N+]([O-])O[C@H]1CO[C@H]2[C@@H]1OC[C@H]2O[N+](=O)[O-]` [Isosorbide dinitrate] was tested, and the neuronal differentiation score ([1]; library: Prestwick) was inactive: 0 and the “dopaminergic neuron differentiation score” value ([2]; library: Prestwick) was inactive: 0.

For `C[CH2][Hg][S]c1ccccc1C(=O)[O-].[Na+]`, the neuronal differentiation score ([1]; library: Spectrum) was inactive: 0 and the “dopaminergic neuron differentiation score” value ([2]; library: Spectrum) was inactive: 0.

In the case of `CC(C)n1cnc2c(C(=O)N[C@H]3CN4CCC3CC4)cc(Cl)cc21`, the neuronal differentiation score ([1]; library: Tocriscreen) is reported as inactive: 0 and the “dopaminergic neuron differentiation score” value ([2]; library: Tocriscreen) is reported as inactive: 0.

With `C=C1[C@@H]2CC[C@H]3[C@]4(C)C[C@H](O[C@@H]5O[C@H](CO)[C@@H](OS(=O)(=O)O)[C@H](OS(=O)(=O)O)[C@H]5OC(=O)CC(C)C)C[C@@H](C(=O)O)[C@H]4CC[C@]3(C2)[C@@H]1O` [Atractyloside potassium salt] the neuronal differentiation score ([1]; library: Prestwick) was inactive: 0 and the “dopaminergic neuron differentiation score” value ([2]; library: Prestwick) was inactive: 0.

In the case of `O=C1C[C@@H]2OCC=C3CN4CC[C@]56c7ccccc7N1[C@H]5[C@H]2[C@H]3C[C@H]46`, the neuronal differentiation score ([1]; library: Spectrum) is reported as inactive: 1 and the “dopaminergic neuron differentiation score” value ([2]; library: Spectrum) is reported as inactive: 1.

`c1ccc2sc(C3(N4CCCCC4)CCCCC3)cc2c1` [BTCP hydrochloride] was tested, and the neuronal differentiation score ([1]; library: LOPAC) was inactive: 0 and the “dopaminergic neuron differentiation score” value ([2]; library: LOPAC) was inactive: 0.

In the case of `CC[C@H]1CN2CC[C@H]1C[C@@H]2[C@@H](O)c1ccnc2ccc(OC)cc12`, the neuronal differentiation score ([1]; library: Spectrum) is reported as inactive: 0 and the “dopaminergic neuron differentiation score” value ([2]; library: Spectrum) is reported as inactive: 0.

In the case of `CCC[C@@H]1CC2=CC(=O)CC[C@]2(C)[C@H]2CC[C@@]3(C)[C@@H](CC[C@@]3(O)CCC(=O)O)[C@H]12`, the neuronal differentiation score ([1]; library: Tocriscreen) is reported as inactive: 0 and the “dopaminergic neuron differentiation score” value ([2]; library: Tocriscreen) is reported as inactive: 0.

`COC(=O)NC(=S)Nc1ccccc1NC(=S)NC(=O)OC` was tested, and the neuronal differentiation score ([1]; library: Spectrum) was inactive: 0 and the “dopaminergic neuron differentiation score” value ([2]; library: Spectrum) was inactive: 0.

With `O=C([O-])c1ccccc1-c1c2cc(Br)c(=O)cc-2oc2[c]([Hg+])c([O-])c(Br)cc12.[Na+].[Na+].[OH-]` [Merbromin] the neuronal differentiation score ([1]; library: Prestwick) was inactive: -1 and the “dopaminergic neuron differentiation score” value ([2]; library: Prestwick) was inactive: 0.

For `O=[N+]([O-])O[C@@H]1CO[C@H]2[C@@H]1OC[C@@H]2O`, the neuronal differentiation score ([1]; library: Spectrum) was inactive: 0 and the “dopaminergic neuron differentiation score” value ([2]; library: Spectrum) was inactive: 0.

`CN[C@@H](C)[C@@H](O)c1ccccc1` was tested, and the neuronal differentiation score ([1]; library: Spectrum) was inactive: 0 and the “dopaminergic neuron differentiation score” value ([2]; library: Spectrum) was inactive: 0.

`CC([C@H](O)c1ccccc1)N(C)C` (stereo partly drawn) was tested, and the neuronal differentiation score ([1]; library: Spectrum) was inactive: 0 and the “dopaminergic neuron differentiation score” value ([2]; library: Spectrum) was inactive: 0.

With `CCCN(CCC)[C@@H]1CCc2c(F)ccc(O)c2C1` [R(+)-UH-301 hydrochloride] the neuronal differentiation score ([1]; library: LOPAC) was inactive: 0 and the “dopaminergic neuron differentiation score” value ([2]; library: LOPAC) was inactive: 0.

With `N[C@@H](Cn1oc(=O)[nH]c1=O)C(=O)O` [(+)-Quisqualic acid] the neuronal differentiation score ([1]; library: LOPAC) was inactive: 0 and the “dopaminergic neuron differentiation score” value ([2]; library: LOPAC) was inactive: 0.

For `CCOC(=O)c1ncc2[nH]c3ccc(OCc4ccccc4)cc3c2c1COC`, the neuronal differentiation score ([1]; library: Tocriscreen) was inactive: 0 and the “dopaminergic neuron differentiation score” value ([2]; library: Tocriscreen) was inactive: 0.

`COC(=O)C1=CO[C@@H](C)[C@H]2CN3CC[C@]4(C(=O)Nc5ccccc54)[C@@H]3C[C@H]12` was tested, and the neuronal differentiation score ([1]; library: Spectrum) was inactive: 0 and the “dopaminergic neuron differentiation score” value ([2]; library: Spectrum) was inactive: 0.

`C=C1[C@H]2C[C@@]3([C@@H]1O)[C@@H](C[C@@H]2O)[C@]12[C@@H]4C[C@H]3[C@H]1N(CC)C[C@]4(C)CC[C@@H]2O` [Napelline] was tested, and the neuronal differentiation score ([1]; library: Phytochemical) was active: 2 and the “dopaminergic neuron differentiation score” value ([2]; library: Phytochemical) was inactive: 0.

With `NC(=O)C[S+]([O-])C(c1ccccc1)c1ccccc1` (stereo not drawn) the neuronal differentiation score ([1]; library: Spectrum) was inactive: 0 and the “dopaminergic neuron differentiation score” value ([2]; library: Spectrum) was inactive: 0.

`CN(C(=O)Cc1ccc(Cl)c(Cl)c1)[C@H](CN1CCCC1)c1ccccc1` [ICI-199,441 hydrochloride] was tested, and the neuronal differentiation score ([1]; library: Tocriscreen) was inactive: 0 and the “dopaminergic neuron differentiation score” value ([2]; library: Tocriscreen) was inactive: 0.

In the case of `C[N+]1(C)CCc2cc3c(cc2C1C1OC(=O)c2c1ccc1c2OCO1)OCO3` (single isomer, unassigned; (-)) [(-)-Bicuculline methobromide], the neuronal differentiation score ([1]; library: Tocriscreen) is reported as inactive: 0 and the “dopaminergic neuron differentiation score” value ([2]; library: Tocriscreen) is reported as inactive: 0.

Reference: the supplement of paper PMC4635364
